According to the supplement of paper PMC12067093, “Discovery and optimisation of a covalent ligand for TRIM25 and its application to targeted protein ubiquitination” (Chemical Science, 2025):
Some of the results follow.

Compound: CC1Cc2ccccc2N1C(=O)C1CCCN(C1)C(=O)CCl (mixture of isomers) [TRIM25 ligand 11 (diastereomer mixture)]
Assay: probe-labelled cysteine peptide fold change vs DMSO (competition) (log2 fold change); higher = less target engagement (more negative = stronger competition)
Settings: THP-1, incubation time: 4 h
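Also: competitive chemoproteomic profiling in live THP-1 cells with an iodoacetamide desthiobiotin (IA-DTB) probe, comparing probe-labelled peptide intensities in compound-treated cells against DMSO-treated controls.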

Target | probe-labelled cysteine peptide fold change (10 µM) | probe-labelled cysteine peptide fold change (50 µM)
EIF1AX_P47813_51_LEAMCFDGVK (UniProt P47813) | 0.0748 | 0.0336
EEF2_P13639_557_SDPMVQCIIEESGEHIIAGAGELHLEICLK (UniProt P13639) | -0.0687 | -0.13
EEF1A2_Q05639_370_SDPPQEAAQFTSQVIILNHPGQISAGYSPVIDCHTAHIACK (UniProt Q05639) | -0.133 | -0.13
EIF1AD_Q8N9N8_89_AEISFVLCK (UniProt Q8N9N8) | 0.054 | 0.00318
EIF2B4_Q9UI10_437_AHNVPVLVCCETYK (UniProt Q9UI10) | -0.0019 | 0.186
EEF1A1_P68104_411_SGDAAIVDMVPGKPMCVESFSDYPPLGR (UniProt P68104) | -0.107 | -0.29
EHMT1_Q9H9B1_954_ENRYDCVVLFLSR (UniProt Q9H9B1) | -0.0485 | 0.222
EHMT2_Q96KQ7_1170_YFTCQCGSEK (UniProt Q96KQ7) | 0.112 | 0.136
EHMT1_Q9H9B1_954_YDCVVLFLSR (UniProt Q9H9B1) | 0.29 | 0.439
EDC4_Q6P2E9_4_ASCASIDIEDATQHLR (UniProt Q6P2E9) | -0.0253 | 0.137
ECSIT_Q9BQ95_299_CVYYHILR (UniProt Q9BQ95) | -0.0582 | 0.0964
EGLN1_Q9GZT9_208_HGICVVDDFLGK (UniProt Q9GZT9) | -0.11 | -0.17
EEF2_P13639_751_LMEPIYLVEIQCPEQVVGGIYGVLNR (UniProt P13639) | -0.0478 | -0.149
EIF2B5_Q13144_414_VAAGAQIHQSLLCDNAEVK (UniProt Q13144) | 0.195 | -0.298
EIF1B_O60739_94_NICQFLLEVGIVK (UniProt O60739) | -0.126 | 0.0426
EIF2AK2_P19525_121_LTVNYEQCASGVHGPEGFHYK (UniProt P19525) | 0.0635 | -0.00194
EIF2D_P41214_301_ADLPLLTSTFLGSHMFSCCPEGR (UniProt P41214) | 0.0735 | -0.0234
EIF2D_P41214_271_TLQEQMDELLQQCFLHALK (UniProt P41214) | 0.014 | -0.0458
EEF1A1_P68104_363+370_NDPPMEAAGFTAQVIILNHPGQISAGYAPVLDCHTAHIACK (UniProt P68104) | 0.054 | -0.169
ECD_O95905_211_AHCFLPAGIVAVLK (UniProt O95905) | -0.168 | 0.187
EEFSEC_P57772_442_LDADIHTNTCR (UniProt P57772) | -0.0126 | -0.0441
EIF2B3_Q9NR50_64_ALCAEFK (UniProt Q9NR50) | 0.121 | 0.272
EIF2S3_P41091_105_SCGSSTPDEFPTDIPGTK (UniProt P41091) | 0.0576 | 0.0359
EHMT2_Q96KQ7_497_HHCCPGCGYFCTAGTFLECHPDFR (UniProt Q96KQ7) | -0.0136 | 0.0286
EGFL7_Q9UHF1_269_IDSLSEQISFLEEQLGSCSCK (UniProt Q9UHF1) | -0.0599 | -0.0952
EEF2_P13639_290_TFCQLILDPIFK (UniProt P13639) | -0.105 | -0.104

A stretch of the results above, as a working copy:
Target | probe-labelled cysteine peptide fold change (10 µM) | probe-labelled cysteine peptide fold change (50 µM)
EHMT1_Q9H9B1_954_ENRYDCVVLFLSR (UniProt Q9H9B1) | -0.0485 | 0.222
EHMT2_Q96KQ7_1170_YFTCQCGSEK (UniProt Q96KQ7) | 0.112 | 0.136
